Reference: US20100062067A1, “COMPOSITIONS COMPRISING MACROMOLECULAR ASSEMBLIES OF LIPID AND SURFACTANT” (MALVERN COSMECEUTICS LIMITED, priority 2006, published 2010)
For at least one compound, name, drawing or mass did not settle the structure. Marks after values point to notes of the source that are not given here.

Compared with COc1cc(CNC(=O)CCCC/C=C/C(C)C)ccc1O [Capsaicin (Sabinsa)], C=C1CC[C@H](O)C/C1=C/C=C1\CCC[C@]2(C)[C@@H]([C@H](C)CCCC(C)C)CC[C@@H]12 [Vitamin D3] is higher in “Turbidity (FNU)” value: 8.41 FNU for the first, 11.62 FNU for the second.

With COc1cc(CNC(=O)CCCC/C=C/C(C)C)ccc1O [Capsaicin (Sigma)] the “Turbidity (FNU)” value was 14.55 FNU.

For CNC(=O)Oc1ccc2c(c1)[C@]1(C)CCN(C)[C@@H]1N2C [Eserine], the “Turbidity (FNU)” value was 120.54** FNU.
